Source: patent US20170283864
The exact form of at least one protein or probe is not confirmed.

Test system: Vibhar transposase
Assay: activity assay
Conditions: 5' phosphate on second strand (SEQ 2); transposase loaded with adapter (225 mM KCl, 9.4% glycerol, 1 mM EDTA, 2 mM DTT, 25 C 4 h then 4 C 3 days) tagmented human genomic DNA; purified recombinant protein; protein details: Tn5-like transposase, 3.07 mg/ml in loading mix

**Q.** Which “activity on this sequence” value does the source give for “AAGAACCAGGCTTGTCCTCATAGATCGCACTTGTGATCAAGAGACAG / CTGTCTCTTGATCACAAGTTAAGGCGATTTCTCAAGGCAATGGGACT [Y adapter with Vibhar transposase recognition end]” here?
**A.** active
